{"sequences": {"note": "The chains behind the UniProt entries cited, without tags or fusion partners. Residues count along the entry.", "UniProt Q07092, residues 22-1604": "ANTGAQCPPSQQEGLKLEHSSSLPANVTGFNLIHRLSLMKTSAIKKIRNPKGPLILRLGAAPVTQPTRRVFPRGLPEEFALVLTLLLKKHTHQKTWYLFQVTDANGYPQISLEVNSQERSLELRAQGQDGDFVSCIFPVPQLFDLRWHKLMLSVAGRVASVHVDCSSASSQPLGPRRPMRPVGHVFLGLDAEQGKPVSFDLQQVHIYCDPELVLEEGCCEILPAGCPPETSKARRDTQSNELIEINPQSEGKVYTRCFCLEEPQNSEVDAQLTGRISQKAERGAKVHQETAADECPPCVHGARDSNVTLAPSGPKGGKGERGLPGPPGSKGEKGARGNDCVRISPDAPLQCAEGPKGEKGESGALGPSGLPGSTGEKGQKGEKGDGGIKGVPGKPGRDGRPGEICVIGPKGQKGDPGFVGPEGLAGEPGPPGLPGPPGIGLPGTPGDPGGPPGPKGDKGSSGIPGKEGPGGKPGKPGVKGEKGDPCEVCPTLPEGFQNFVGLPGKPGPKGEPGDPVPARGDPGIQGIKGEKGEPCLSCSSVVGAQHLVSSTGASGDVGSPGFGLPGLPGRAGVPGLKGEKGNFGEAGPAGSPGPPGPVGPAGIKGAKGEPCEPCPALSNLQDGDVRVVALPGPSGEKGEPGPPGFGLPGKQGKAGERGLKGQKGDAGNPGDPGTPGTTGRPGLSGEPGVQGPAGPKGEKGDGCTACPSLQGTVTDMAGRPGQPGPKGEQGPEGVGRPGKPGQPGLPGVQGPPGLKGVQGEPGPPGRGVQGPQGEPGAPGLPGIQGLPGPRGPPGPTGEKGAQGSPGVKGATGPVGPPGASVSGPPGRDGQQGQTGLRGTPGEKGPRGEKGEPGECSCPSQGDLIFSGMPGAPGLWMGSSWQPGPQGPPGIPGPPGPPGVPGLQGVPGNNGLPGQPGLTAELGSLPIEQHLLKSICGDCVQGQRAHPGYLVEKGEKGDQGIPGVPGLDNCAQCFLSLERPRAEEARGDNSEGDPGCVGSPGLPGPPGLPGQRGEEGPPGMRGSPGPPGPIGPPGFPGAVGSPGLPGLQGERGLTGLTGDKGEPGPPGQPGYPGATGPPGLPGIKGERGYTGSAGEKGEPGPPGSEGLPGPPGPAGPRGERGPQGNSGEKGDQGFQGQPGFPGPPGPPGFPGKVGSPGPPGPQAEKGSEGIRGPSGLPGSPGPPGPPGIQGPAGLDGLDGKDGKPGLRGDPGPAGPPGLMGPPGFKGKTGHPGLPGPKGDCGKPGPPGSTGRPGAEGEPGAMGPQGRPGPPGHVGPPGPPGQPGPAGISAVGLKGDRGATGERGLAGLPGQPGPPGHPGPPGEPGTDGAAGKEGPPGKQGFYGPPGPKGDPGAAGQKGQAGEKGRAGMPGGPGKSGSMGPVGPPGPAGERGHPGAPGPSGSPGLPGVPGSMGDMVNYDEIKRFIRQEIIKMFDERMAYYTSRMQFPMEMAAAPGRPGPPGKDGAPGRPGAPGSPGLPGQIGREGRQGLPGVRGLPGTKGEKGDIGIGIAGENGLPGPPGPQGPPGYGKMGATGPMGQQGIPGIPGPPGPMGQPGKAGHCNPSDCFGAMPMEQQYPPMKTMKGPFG"}, "source": "patent US20230280350A1", "about": "(NORDIC BIOSCIENCE A S, published 2023)", "binders": {"B1": {"name": "monoclonal antibody of the PRO-C16 assay, raised against KLH-CGG-… (antibody, mouse IgG2b, kappa, V domains shown)", "VH": "EVQLQQSGAELVRSGASVKLSCTASGFNIKDYYIHWVKQRPEQGLEWIGWIDHDNGDTEYDPKFQGKATLTADTSSNTAYLQLSSLTSEDTAVYYCNAKGPRYGYEEDWFAYWGQGTLVTVST", "VL": "DVLMTQTPLSLPVSLGDQASISCRSSQSIVHNNGNTYLEWFLQKPGQSPKLLIYKVSNRFSGVPDRFSGSGSGTDFTLRISRVEADDLGVYYCFQGSHVPRTFGGGTKLEIKR", "notes": "also called PRO-C16 antibody; C16-C"}}, "key": {"[1]": {"molecular_target": "type XVI collagen α1 chain (native material in human serum) (human) (UniProt Q07092)", "assay": "competitive ELISA on human serum"}, "[2]": {"molecular_target": "type XVI collagen α1 chain (native material in human serum) (human) (UniProt Q07092)", "assay": "competitive ELISA, peptide specificity"}}, "note": "No constants are given. Whether binding was seen depends on the method and setting. Some binding calls cover weakened binding; strength is not graded here.", "data": [{"binder": "B1", "values": [{"measurement": "binding", "setting": "[1]", "value": "binds"}, {"measurement": "binding", "setting": "[2]", "value": "binds"}]}]}
